Assay results as given in publication PMC10426103.
Results are given in words; binding and its absence hold for the method and conditions named. Binding seen in cells or lysates may run through a third protein. Some results given as binding are weak or reduced against the parent protein; the word gives no strength.

Protein sequences, listed by entry. Tags and fused reporters are not part of them.
UniProt O95563: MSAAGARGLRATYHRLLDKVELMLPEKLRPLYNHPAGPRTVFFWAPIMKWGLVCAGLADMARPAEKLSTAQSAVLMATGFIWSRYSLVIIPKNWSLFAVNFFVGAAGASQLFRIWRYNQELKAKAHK

Assays:
[1] = biological target: mitochondrial pyruvate carrier 2 (MPC2) (human (endogenous in HEK-293T)) (UniProt O95563); assay: co-IP; 293T cells harvested with IP lysis buffer; reacted with immobilized antibodies (GCN5L1, MPC2 and IgG) at 4 °C overnight, Pierce Co-IP Kit; eluted with reducing SDS lysis buffer; immunoblot with anti-MPC2 and anti-GCN5L1
[2] = biological target: Flag-MPC2 (UniProt O95563); assay: co-IP; 293T cells transfected with Flag-GCN5L1 or Flag-MPC2, lysed with IP lysis buffer, incubated at 4 °C overnight with anti-Flag M2 agarose; washed in PBS; eluted with 1x sample buffer; immunoblot with anti-GCN5L1 or anti-MPC2

binding [1]: binds | binding [2]: binds
B1: amino acid synthesis 5-like 1 (GCN5L1) (protein, UniProt P78537 1-153)
chain: MAPGSRGERSSFRSRRGPGVPSPQPDVTMLSRLLKEHQAKQNERKELQEKRRREAITAATCLTEALVDHLNVGVAQAYMNQRKLDHEVKTLQVQAAQFAKQTGQWIGMVENFNQALKEIGDVENWARSIELDMRTIATALEYVYKGQLQSAPS
